Test results as given in patent publication US20170157000A1, “COSMETIC PRODUCT WITH LIPOSOMAL GROWTH FACTORS” (DERMOPARTNERS, S.L., priority 2014, published 2017).
Some entries share one result that the patent states for a list of compounds.

Test system: human fibroblasts (HSF)
Experiment: MTT cell proliferation assay in human fibroblasts
Type: cell-based
Settings: low concentrations (0.01 ng/ml), 72 hours
From the text: This assay is based on metabolic reduction of bromide 3-(4,5-dimethylthiazol-2-yl)-2,5-diphenyltetrazolium (MTT) carried out by the mitochondrial succinate dehydrogenase enzyme in a blue colored compound (formazan), allowing the mitochondrial functionality of the treated cells to be determined. This method has been very widely used to measure cell survival and proliferation. The quantity of live cells is proportional to the quantity of formazan produced. This method was developed by Mosmann in 1983, modified in 1986 by Francois Denizot and Rita Lang. • 1. Using trypsin, separate the cells and re-suspend them in supplemented culture medium (10% of bovine fetal serum and antibiotic). • 2. […] The optical density reading (OD) is carried out in a spectrophotometer at a wavelength of 570 nm. • The viability percentage is obtained in the following manner: % viability—DO cells treated×100/DO control cells

B1: follistatin (protein, UniProt P19883 30-344, looked up)
Follistatin: GNCWLRQAKNGRCQVLYKTELSKEECCSTGRLSTSWTEEDVNDNTLFKWMIFNGGAPNCIPCKETCENVDCGPGKKCRMNKKNKPRCVCAPDCSNITWKGPVCGLDGKTYRNECALLKARCKEQPELEVQYQGRCKKTCRDVFCPGSSTCVVDQTNNAYCVTCNRICPEPASSEQYLCGNDGVTYSSACHLRKATCLLGRSIGLAYEGKCIKAKSCEDIQCTGGKKCLWDFKVGRGRCSLCDELCPDSKSDEPVCASDNATYASECAMKEAACSSGVLLEVKHSGSCNSISEDTEEEEEDEDQDYSFPISSILEW
notes: growth factor follistatin analyzed in free form
- cell proliferation above the untreated cells: 60-70%
